Measurements from the supplement of paper PMC12067093, “Discovery and optimisation of a covalent ligand for TRIM25 and its application to targeted protein ubiquitination” (Chemical Science, 2025).
This is one part of the list.

Compound: Cc1cc(ccc1-c1ccccc1)C(=O)N1CCCN(CC1)C(=O)CCl [compound 10]
Test: probe-labelled cysteine peptide fold change vs DMSO (competition) (log2 fold change); higher = less target engagement (more negative = stronger competition)
Conditions: THP-1, incubation time: 4 h
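Also: competitive profiling in live THP-1 cells: cysteine peptides tagged with an iodoacetamide desthiobiotin (IA-DTB) probe, intensity after compound treatment relative to DMSO-treated cells.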

PPP5C_P53041_208_CAYQILVQVK (UniProt P53041)
probe-labelled cysteine peptide fold change (10 µM): 0.218
probe-labelled cysteine peptide fold change (50 µM): -0.0816

PPP1R21_Q6ZMI0_516_AASGFISPLSAECMLQYK (UniProt Q6ZMI0)
probe-labelled cysteine peptide fold change (10 µM): -0.165
probe-labelled cysteine peptide fold change (50 µM): 0.0519

PPP1R9B_Q96SB3_270_ERCPAGQQPPQHR (UniProt Q96SB3)
probe-labelled cysteine peptide fold change (10 µM): -0.121
probe-labelled cysteine peptide fold change (50 µM): -0.262

PPP3CB_P16298_477_ICSFEEAK (UniProt P16298)
probe-labelled cysteine peptide fold change (10 µM): -0.0998
probe-labelled cysteine peptide fold change (50 µM): -0.422

PPP2R1B_P30154_389_ENTIEHLLPLFLAQLKDECPDVR (UniProt P30154)
probe-labelled cysteine peptide fold change (10 µM): -0.162
probe-labelled cysteine peptide fold change (50 µM): -0.525

PPT1_P50897_46_ALQHLDPPAPLPLVIWHGMGDSCCNPLSMGAIK (UniProt P50897)
probe-labelled cysteine peptide fold change (10 µM): -0.0778
probe-labelled cysteine peptide fold change (50 µM): -0.262

PPP6C_O00743_265_CGNIASIMVFK (UniProt O00743)
probe-labelled cysteine peptide fold change (10 µM): 0.123
probe-labelled cysteine peptide fold change (50 µM): -0.157

PPP1R9B_Q96SB3_732_LEGYWGEAQSLCQAVDEHLR (UniProt Q96SB3)
probe-labelled cysteine peptide fold change (10 µM): 0.13
probe-labelled cysteine peptide fold change (50 µM): 0.178

PPP3R1_P63098_154_ISFEEFCAVVGGLDIHKK (UniProt P63098)
probe-labelled cysteine peptide fold change (10 µM): 0.0939
probe-labelled cysteine peptide fold change (50 µM): -0.0352

PPP3CB_P16298_162_GNHECR (UniProt P16298)
probe-labelled cysteine peptide fold change (10 µM): 0.0253
probe-labelled cysteine peptide fold change (50 µM): 0.0397

PPP5C_P53041_404_RGVSCQFGPDVTK (UniProt P53041)
probe-labelled cysteine peptide fold change (10 µM): -0.00883
probe-labelled cysteine peptide fold change (50 µM): -0.103

PPP1R21_Q6ZMI0_468_LITTNDCILSSVVALTNGAGK (UniProt Q6ZMI0)
probe-labelled cysteine peptide fold change (10 µM): 0.127
probe-labelled cysteine peptide fold change (50 µM): 0.0617

PREP_P48147_410_DTEIFYQFTSFLSPGIIYHCDLTK (UniProt P48147)
probe-labelled cysteine peptide fold change (10 µM): 0.0842
probe-labelled cysteine peptide fold change (50 µM): 0.431

PRDX1_Q06830_173_HGEVCPAGWKPGSDTIKPDVQK (UniProt Q06830)
probe-labelled cysteine peptide fold change (10 µM): -0.0994
probe-labelled cysteine peptide fold change (50 µM): -0.184

PRC1_O43663_322_QAFAPFCAEDYTESLLQLHDAEIVR (UniProt O43663)
probe-labelled cysteine peptide fold change (10 µM): 0.426
probe-labelled cysteine peptide fold change (50 µM): 0.522

PREX1_Q8TCU6_963_QAPLEPHPLCGLDFCPTNCHINLMEVSYPK (UniProt Q8TCU6)
probe-labelled cysteine peptide fold change (10 µM): 0.103
probe-labelled cysteine peptide fold change (50 µM): -0.112

PPP1CC_P36873_62_ICGDIHGQYYDLLR (UniProt P36873)
probe-labelled cysteine peptide fold change (10 µM): 0.0848
probe-labelled cysteine peptide fold change (50 µM): 0.122

PPP2R1A_P30153_174_NLCSDDTPMVR (UniProt P30153)
probe-labelled cysteine peptide fold change (10 µM): -0.0569
probe-labelled cysteine peptide fold change (50 µM): -0.0571

PPP4R3A_Q6IN85_180_LLELFHVCEDLENIEGLHHLYEIIK (UniProt Q6IN85)
probe-labelled cysteine peptide fold change (10 µM): 0.46
probe-labelled cysteine peptide fold change (50 µM): 0.616

PPP3CA_Q08209_88_NLLDIDAPVTVCGDIHGQFFDLMK (UniProt Q08209)
probe-labelled cysteine peptide fold change (10 µM): -0.0736
probe-labelled cysteine peptide fold change (50 µM): 0.0327

PPP4R1_Q8TF05_117_AELMEQVPHIALFCQENRPSIPYAFSK (UniProt Q8TF05)
probe-labelled cysteine peptide fold change (10 µM): -0.258
probe-labelled cysteine peptide fold change (50 µM): 0.035

PPP2R1A_P30153_329_ENVIMSQILPCIK (UniProt P30153)
probe-labelled cysteine peptide fold change (10 µM): 0.0526
probe-labelled cysteine peptide fold change (50 µM): 0.148

PRDX4_Q13162_51_EEECHFYAGGQVYPGEASR (UniProt Q13162)
probe-labelled cysteine peptide fold change (10 µM): -0.0981
probe-labelled cysteine peptide fold change (50 µM): 0.21

PRDX1_Q06830_71+83_KLNCQVIGASVDSHFCHLAWVNTPK (UniProt Q06830)
probe-labelled cysteine peptide fold change (10 µM): 0.0063
probe-labelled cysteine peptide fold change (50 µM): -0.175

PPP2R1A_P30153_317_EFCENLSADCR (UniProt P30153)
probe-labelled cysteine peptide fold change (10 µM): -0.168
probe-labelled cysteine peptide fold change (50 µM): 0.0856

PPM1A_P35813_268_VCNEVVDTCLYK (UniProt P35813)
probe-labelled cysteine peptide fold change (10 µM): 0.0697
probe-labelled cysteine peptide fold change (50 µM): 0.0497

PPP5C_P53041_11_AMAEGERTECAEPPRDEPPADGALK (UniProt P53041)
probe-labelled cysteine peptide fold change (10 µM): -0.251
probe-labelled cysteine peptide fold change (50 µM): -0.246

PREX1_Q8TCU6_1173_DSYSECNSNR (UniProt Q8TCU6)
probe-labelled cysteine peptide fold change (10 µM): 0.634
probe-labelled cysteine peptide fold change (50 µM): 1.39

PPT1_P50897_46_ALQHLDPPAPLPLVIWHGMGDSCCNPLSMGAIKK (UniProt P50897)
probe-labelled cysteine peptide fold change (10 µM): 0.0508
probe-labelled cysteine peptide fold change (50 µM): -0.69

PPP6R1_Q9UPN7_172_LLTCVERPQLR (UniProt Q9UPN7)
probe-labelled cysteine peptide fold change (10 µM): -0.171
probe-labelled cysteine peptide fold change (50 µM): 0.543

PPP6R1_Q9UPN7_455_ILTSWEENDRVQCAGGPR (UniProt Q9UPN7)
probe-labelled cysteine peptide fold change (10 µM): -0.0545
probe-labelled cysteine peptide fold change (50 µM): -0.0783

PPP1R8_Q12972_58+67_NPDLCDFTIDHQSCSR (UniProt Q12972)
probe-labelled cysteine peptide fold change (10 µM): 0.0562
probe-labelled cysteine peptide fold change (50 µM): 0.308

PREX1_Q8TCU6_1021_KPSLIGLDPEQGHLNPMSYTQHCITTMAAPSWK (UniProt Q8TCU6)
probe-labelled cysteine peptide fold change (10 µM): -0.0297
probe-labelled cysteine peptide fold change (50 µM): -0.468

PPIP5K2_O43314_306_QTVCGFDLLR (UniProt O43314)
probe-labelled cysteine peptide fold change (10 µM): -0.124
probe-labelled cysteine peptide fold change (50 µM): 0.329

PPP4R1_Q8TF05_566_SDLQDELDINELPNCK (UniProt Q8TF05)
probe-labelled cysteine peptide fold change (10 µM): -0.348
probe-labelled cysteine peptide fold change (50 µM): -0.171

PPP1R12C_Q9BZL4_297_LLAEHGGGMDSLTHAGQRPCDLADEEVLSLLEELAR (UniProt Q9BZL4)
probe-labelled cysteine peptide fold change (10 µM): 0.04
probe-labelled cysteine peptide fold change (50 µM): -0.442

PREX1_Q8TCU6_52_LCVLNEILGTER (UniProt Q8TCU6)
probe-labelled cysteine peptide fold change (10 µM): 0.212
probe-labelled cysteine peptide fold change (50 µM): 0.2

PPP5C_P53041_77_TECYGYALGDATR (UniProt P53041)
probe-labelled cysteine peptide fold change (10 µM): 0.174
probe-labelled cysteine peptide fold change (50 µM): 0.189

PPP4R1_Q8TF05_84_EVCDDERDCIAVLER (UniProt Q8TF05)
probe-labelled cysteine peptide fold change (10 µM): -0.052
probe-labelled cysteine peptide fold change (50 µM): -0.258
